Results are given in words; binding and its absence hold for the method and conditions named. Binding seen in cells or lysates may run through a third protein. Some binding calls cover weakened binding; strength is not graded here.
How the values were obtained:
Assay in all cases: co-IP; HA-tagged RAB7 proteins expressed in Neuro2A cells, cells lysed, immunoprecipitated with anti-HA affinity gel, Western blot with anti-peripherin and anti-HA antibodies
[1] = molecular target: HA-tagged RAB7^K126R (UniProt P51149)
[2] = molecular target: HA-tagged RAB7^V162M (UniProt P51149)
[3] = molecular target: HA-tagged RAB7^wt (UniProt P51149)

The chains behind the UniProt entries cited, without tags or fusion partners. Where a name states a change or a piece, a line headed by the entry shows the natural chain unless it says otherwise.
UniProt P51149: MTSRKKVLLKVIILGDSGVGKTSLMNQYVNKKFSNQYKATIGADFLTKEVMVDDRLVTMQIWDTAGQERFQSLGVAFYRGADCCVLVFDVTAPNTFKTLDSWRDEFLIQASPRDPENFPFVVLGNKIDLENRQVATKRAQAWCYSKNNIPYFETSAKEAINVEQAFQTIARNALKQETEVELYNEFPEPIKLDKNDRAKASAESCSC
UniProt P15331: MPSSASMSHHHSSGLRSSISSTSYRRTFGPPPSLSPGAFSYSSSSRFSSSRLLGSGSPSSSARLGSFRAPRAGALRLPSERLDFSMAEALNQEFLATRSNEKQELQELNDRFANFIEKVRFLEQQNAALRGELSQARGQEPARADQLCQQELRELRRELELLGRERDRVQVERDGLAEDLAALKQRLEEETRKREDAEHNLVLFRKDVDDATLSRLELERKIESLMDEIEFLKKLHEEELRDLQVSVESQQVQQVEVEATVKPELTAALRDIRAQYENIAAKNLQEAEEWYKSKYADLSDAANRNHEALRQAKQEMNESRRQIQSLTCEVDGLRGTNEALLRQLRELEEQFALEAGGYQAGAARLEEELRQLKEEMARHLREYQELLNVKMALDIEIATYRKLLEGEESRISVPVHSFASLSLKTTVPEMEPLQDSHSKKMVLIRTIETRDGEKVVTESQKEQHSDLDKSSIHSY

Measured: binding

peripherin (from UniProt P15331 1-475)
binds: all assays above
